Assay results reported in article PMC3887213.
These are yes or no findings as the source states them, for the method shown. For part of these data: In cells and extracts the contact can be indirect. Some entries that bind do so weakly or less than the wild type.

The chains behind the UniProt entries cited, without tags or fusion partners. Where a name states a change or a piece, a line headed by the entry shows the natural chain unless it says otherwise. Residues count along the entry.
UniProt Q5S007: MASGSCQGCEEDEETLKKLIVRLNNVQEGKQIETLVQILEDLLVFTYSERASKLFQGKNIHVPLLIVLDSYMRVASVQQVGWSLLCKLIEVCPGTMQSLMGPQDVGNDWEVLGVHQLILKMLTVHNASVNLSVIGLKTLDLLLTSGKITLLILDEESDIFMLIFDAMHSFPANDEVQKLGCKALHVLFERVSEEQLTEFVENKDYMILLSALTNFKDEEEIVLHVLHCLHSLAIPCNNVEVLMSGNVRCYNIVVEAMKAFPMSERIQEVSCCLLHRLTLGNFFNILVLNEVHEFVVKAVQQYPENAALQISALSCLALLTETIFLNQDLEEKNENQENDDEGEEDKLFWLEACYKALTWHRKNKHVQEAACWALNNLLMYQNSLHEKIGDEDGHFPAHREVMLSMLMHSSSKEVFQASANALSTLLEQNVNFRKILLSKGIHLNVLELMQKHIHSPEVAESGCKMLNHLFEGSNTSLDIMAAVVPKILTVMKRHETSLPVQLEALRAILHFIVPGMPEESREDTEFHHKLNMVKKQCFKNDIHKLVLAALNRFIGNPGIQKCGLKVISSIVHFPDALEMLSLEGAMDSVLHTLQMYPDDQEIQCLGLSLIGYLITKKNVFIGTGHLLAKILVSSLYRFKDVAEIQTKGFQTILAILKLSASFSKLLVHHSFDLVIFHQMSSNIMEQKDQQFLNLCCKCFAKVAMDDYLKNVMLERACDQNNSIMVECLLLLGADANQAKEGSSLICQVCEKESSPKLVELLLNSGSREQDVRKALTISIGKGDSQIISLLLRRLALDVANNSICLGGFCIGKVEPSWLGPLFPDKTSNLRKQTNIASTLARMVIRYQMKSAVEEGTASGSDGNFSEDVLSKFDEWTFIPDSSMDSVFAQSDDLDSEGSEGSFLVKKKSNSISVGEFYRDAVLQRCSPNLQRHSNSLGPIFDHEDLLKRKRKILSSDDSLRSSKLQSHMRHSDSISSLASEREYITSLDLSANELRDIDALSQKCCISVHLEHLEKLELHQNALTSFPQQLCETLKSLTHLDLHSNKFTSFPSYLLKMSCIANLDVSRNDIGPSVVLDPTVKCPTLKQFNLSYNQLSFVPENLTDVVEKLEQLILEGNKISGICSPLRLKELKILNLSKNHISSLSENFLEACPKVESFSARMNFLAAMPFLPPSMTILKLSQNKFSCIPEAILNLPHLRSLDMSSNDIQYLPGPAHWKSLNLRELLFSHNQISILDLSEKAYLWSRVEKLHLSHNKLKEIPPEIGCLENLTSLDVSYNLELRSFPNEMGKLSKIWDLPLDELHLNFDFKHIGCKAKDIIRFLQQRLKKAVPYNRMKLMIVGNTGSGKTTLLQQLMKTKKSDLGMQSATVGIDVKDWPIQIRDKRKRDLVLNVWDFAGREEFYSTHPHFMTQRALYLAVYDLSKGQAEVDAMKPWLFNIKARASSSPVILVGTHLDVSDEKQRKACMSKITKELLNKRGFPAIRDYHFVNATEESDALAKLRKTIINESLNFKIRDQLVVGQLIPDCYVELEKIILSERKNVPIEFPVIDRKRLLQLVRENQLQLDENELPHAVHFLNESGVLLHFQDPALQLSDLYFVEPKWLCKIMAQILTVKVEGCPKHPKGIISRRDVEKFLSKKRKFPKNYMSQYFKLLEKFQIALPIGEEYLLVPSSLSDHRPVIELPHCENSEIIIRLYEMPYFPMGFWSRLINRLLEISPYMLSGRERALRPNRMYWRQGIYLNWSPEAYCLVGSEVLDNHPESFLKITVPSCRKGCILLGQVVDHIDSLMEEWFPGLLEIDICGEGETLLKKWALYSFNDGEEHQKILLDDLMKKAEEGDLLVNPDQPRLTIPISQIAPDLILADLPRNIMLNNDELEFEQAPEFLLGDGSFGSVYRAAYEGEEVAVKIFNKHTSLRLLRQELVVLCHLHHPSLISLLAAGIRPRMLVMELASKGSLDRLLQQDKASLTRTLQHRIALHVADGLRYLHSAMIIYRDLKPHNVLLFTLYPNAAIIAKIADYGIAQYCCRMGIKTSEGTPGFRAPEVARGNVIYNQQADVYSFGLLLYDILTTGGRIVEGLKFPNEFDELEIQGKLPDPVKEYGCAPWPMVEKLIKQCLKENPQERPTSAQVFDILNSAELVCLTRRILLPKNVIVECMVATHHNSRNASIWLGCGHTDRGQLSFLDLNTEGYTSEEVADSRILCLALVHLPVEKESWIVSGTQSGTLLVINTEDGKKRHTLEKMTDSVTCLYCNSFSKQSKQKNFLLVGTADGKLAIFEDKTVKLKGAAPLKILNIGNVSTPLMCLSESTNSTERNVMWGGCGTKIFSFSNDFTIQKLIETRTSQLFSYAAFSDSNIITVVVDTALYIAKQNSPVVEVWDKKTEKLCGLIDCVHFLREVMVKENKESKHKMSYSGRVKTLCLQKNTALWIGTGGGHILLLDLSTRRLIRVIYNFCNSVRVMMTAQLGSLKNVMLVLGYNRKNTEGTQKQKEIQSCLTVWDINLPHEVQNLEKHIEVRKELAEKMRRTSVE
LRRK2 Roc domain (LexA-BD bait): residues 1328-1511 of Q5S007
LRRK2 COR domain (LexA-BD bait): residues 1546-1740 of Q5S007
UniProt P04350: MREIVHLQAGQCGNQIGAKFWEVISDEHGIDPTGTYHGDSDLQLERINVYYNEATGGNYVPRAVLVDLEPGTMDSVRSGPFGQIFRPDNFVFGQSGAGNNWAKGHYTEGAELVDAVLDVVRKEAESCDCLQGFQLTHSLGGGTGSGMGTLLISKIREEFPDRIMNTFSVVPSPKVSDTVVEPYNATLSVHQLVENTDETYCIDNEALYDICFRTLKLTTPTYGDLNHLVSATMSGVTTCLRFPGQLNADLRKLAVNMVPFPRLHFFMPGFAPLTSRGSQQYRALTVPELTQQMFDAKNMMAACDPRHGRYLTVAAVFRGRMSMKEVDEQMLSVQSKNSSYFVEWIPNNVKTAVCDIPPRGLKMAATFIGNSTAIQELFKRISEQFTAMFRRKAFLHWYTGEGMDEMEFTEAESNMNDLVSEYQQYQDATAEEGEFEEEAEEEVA
UniProt P07437: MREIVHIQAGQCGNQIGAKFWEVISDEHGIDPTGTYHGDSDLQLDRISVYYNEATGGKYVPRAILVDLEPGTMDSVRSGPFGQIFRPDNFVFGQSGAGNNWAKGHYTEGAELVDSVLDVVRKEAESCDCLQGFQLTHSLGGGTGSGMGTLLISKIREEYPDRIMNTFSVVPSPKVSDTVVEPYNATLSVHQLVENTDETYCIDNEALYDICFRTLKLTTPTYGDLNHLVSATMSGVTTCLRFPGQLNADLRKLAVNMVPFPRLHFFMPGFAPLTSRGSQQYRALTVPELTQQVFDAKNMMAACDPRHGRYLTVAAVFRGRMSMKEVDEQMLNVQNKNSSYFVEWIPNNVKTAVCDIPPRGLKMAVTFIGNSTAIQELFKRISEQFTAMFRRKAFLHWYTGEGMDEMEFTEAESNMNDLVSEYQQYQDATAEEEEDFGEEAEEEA

Legend:
[1] = biological target: LRRK2 Roc domain (LexA-BD bait) (human) (UniProt Q5S007); test: two-hybrid; yeast L40, LexA-BD baits and GAL4-AD preys; selection without Leu, Trp, His with 0.5 mM 3-amino-1,2,4-triazole, 30 °C 3-6 days; semiquantitative LacZ freeze-fracture assays
[2] = biological target: LRRK2 COR domain (LexA-BD bait) (human) (UniProt Q5S007); test: as above
[3] = biological target: full-length FLAG-tagged TUBB4 (human) (UniProt P04350); test: co-IP; HEK293 cells transfected with FLAG-β-tubulin and myc-LRRK2 constructs; lysate on anti-FLAG M2 affinity gel overnight at 4 °C, elution with 3xFLAG peptide, anti-myc blot
[4] = biological target: full-length FLAG-tagged TUBB (human) (UniProt P07437); test: as above

Row | binding [1] | binding [2] | binding [3] | binding [4] | Substance
1 | binds | no binding |  |  | TUBB4 C terminus (Phe-317 to Ala-444), GAL4-AD prey (from UniProt P04350 317-444) (domain or fragment)
2 | binds | no binding |  |  | TUBB C terminus (Phe-317 to the stop codon), GAL4-AD prey (from UniProt P07437 317-444) (domain or fragment)
3 |  |  | binds | binds | full-length myc-tagged LRRK2 (wild type) (from UniProt Q5S007 1-2527)
